Laboratory results as given in PubChem BioAssay AID590 (National Center for Advancing Translational Sciences (NCATS), 2007).
Screen size: about 59,000 compounds; about 6,500 (11%) were called active. Inconclusive results, whose numbers are uncertain, are shown with a selection of clear calls. Cut-off read from the data, not from the text of the source: active = max dye-equivalent concentration above about 10 nM; inconclusive = mostly about 1.1 nM to 9.6 nM; inactive = weaker than that. Some structures have more than one record in an assay (separate samples or runs), and their calls can disagree.

Assay: qHTS Assay for Spectroscopic Profiling in A350 Spectral Region
Details: Compound autofluorescence, 340/450 nm, Alexa 350 dye-equivalents; stronger effect = higher value

| SMILES | max dye-equivalent concentration |
| --- | --- |
| COCc1cc(=O)n2[nH]c(SC)nc2n1 | inconclusive: 1.5 nM |
| O=C(c1ccc2c(=O)n(-c3ccccc3)c(=O)[nH]c2c1)N1CCCCC1 | active: 50 nM |
| Cc1cc(C(=O)NCc2ccccc2Br)no1 | inconclusive: 1.1 nM |
| Cc1cc(C)nc(-n2nc(C)c(C3(O)C(=O)Nc4ccc(F)cc43)c2N)n1 (configuration not stated) | inconclusive: 1.5 nM |
| COC(=O)c1ccc(Cn2cnc3ccccc3c2=O)cc1 | inactive |
| Cc1ccc2cc(C(c3nnnn3CC3CCCO3)N3CCCC4(CCCCC4)C3)c(=O)[nH]c2c1 (configuration not stated) | inactive |
| COc1ccccc1CC1(C)NC(=O)N(CC(=O)Nc2cc(C)on2)C1=O (configuration not stated) | active: 10 nM |
| COc1ccc(-n2cnnc2SCc2csc(-c3ccccc3)n2)cc1 | inactive |
| COc1ccc(C(=O)N=c2nc3ccccn3s2)cc1 | inconclusive: 2.9 nM |
| Cc1cc(-c2ccccc2C(=O)O)on1 | active: 21 nM |
| CN(C)c1ncc2nc(-c3cc(F)cc(F)c3)c(=O)n(C[C@H]3CCCO3)c2n1 | active: 17 nM |
| Cc1cc2c(cc1C)NC1=C(N2)O[C@H](c2c[nH]c3ccc(COc4ccccc4)cc23)C1=O | inactive |
| CCCOc1ccc(CSC(CC(=O)O)C(=O)O)cc1 (configuration not stated) | inconclusive: 1.8 nM |
| Cc1ccc(-c2ccc(C(=O)O)[nH]2)cc1 | active: 18 nM |
| COc1ccccc1-n1c(SCC(=O)NC(C)(C)C)nc(O)cc1=O | inconclusive: 2.3 nM |
| O=S(=O)(Nc1ccc2nc(-c3ccco3)[nH]c2c1)c1ccccc1 | inconclusive: 8.9 nM |
| CCN(C(=O)CSc1nnnn1-c1cc(C)ccc1OC)C1CCS(=O)(=O)C1 (configuration not stated) | inactive |
| C[C@@H]1O[C@@H](n2cc(F)c(=O)[nH]c2=O)[C@H](O)[C@@H]1O | inactive |
| COCCn1nnnc1C(c1cc2cc(C)ccc2[nH]c1=O)N1CCCCCC1 (configuration not stated) | active: 14 nM |
| O=C(Nc1ccccc1F)C1C2C=CC3(O2)C1C(=O)N(c1cccnc1)C3C(=O)NC1CCCCC1 (configuration not stated) | inactive |
| CCN(CC)S(=O)(=O)c1ccc(C(=O)OCn2nnc3ccccc3c2=O)cc1 | inactive |
| COc1cc(NC(=O)c2cc3nc(C)cc(C)n3n2)c(OC)cc1Cl | inconclusive: 7.5 nM |
| Cc1cn([C@H]2C[C@H](N=[N+]=[N-])[C@H](CO)O2)c(=O)[nH]c1=O | inconclusive: 2.4 nM |

| SMILES | max dye-equivalent concentration |
| --- | --- |
| COC(=O)[C@@H](NC(=O)NCc1cccs1)C(C)C | inconclusive: 1.3 nM |
| COc1ccc(CCN2CC34C=CC(O3)C(C(=O)NCc3ccccc3)C4C2=O)cc1OC (configuration not stated) | inconclusive: 1.9 nM |
| O=C(CC(SCCO)c1ccc2c(c1)OCO2)c1ccco1 (configuration not stated) | inconclusive: 2.6 nM |
| CCn1c(SCC(=O)c2cc(OC)ccc2OC)nc2c1c(=O)n(C)c(=O)n2C | inconclusive: 2.5 nM |
| CCOC(=O)CCn1nc(-c2ccccc2)cc1N | inconclusive: 2.8 nM |
| N#Cc1nc(Cc2ccccc2)oc1N1CCC(Cc2ccccc2)CC1 | inactive |
| O=C(CSc1nc2nc[nH]c2c(=O)[nH]1)NC1CCCCC1 | inconclusive: 7.6 nM |
| COC(=O)C1=C(C)NC(C)=C(C(=O)OC)C1C(=O)OCCN1C(=O)c2ccccc2C1=O | inconclusive: 3.9 nM |
| Cc1nc(N)sc1-c1csc(Nc2ccccc2)n1 | inactive |
| CCn1c(SCC(=O)Nc2cc(NC(C)=O)ccc2OC)nnc1-c1cccnc1 | active: 10 nM |
| O=C1NCCN1C(=O)c1ccccc1F | inactive |
| CCn1c(SCC(=O)NCc2ccc(C)cc2)nnc1-c1ccncc1 | inconclusive: 2.1 nM |
| CCC(Oc1ccccc1)C(=O)Nc1ccc(-c2nnc(-c3ccco3)o2)cc1 (configuration not stated) | inactive |
| Clc1ccc(OCCCn2cncn2)cc1Cl | active: 1400 nM |
| CCOC(=O)c1ccc(NC(=O)Cn2nnc(-c3ccc(C)cc3)n2)cc1 | inconclusive: 2.1 nM |
| CC(C)=CCc1c(C)nc2ccccc2c1C(=O)O | inconclusive: 2.3 nM |
| CCSc1nc(-c2ccc(OC)cc2)ccc1C#N | active: 110 nM |
| COc1ccc2cc3cc(C(=O)NCCN4CCc5ccccc5C4)oc3nc2c1 | active: 930 nM |
| O=C(Nc1nsc(-c2ccccc2)n1)c1cccs1 | inconclusive: 1.5 nM |
| CCOC(=O)N1CCN(C(=O)c2ccc3c(=O)n(CCOC)c(=O)[nH]c3c2)CC1 | active: 21 nM |
| CN1CCN(c2ncc3nc(-c4cc(F)cc(F)c4)c(=O)n(CCC#N)c3n2)CC1 | active: 94 nM |
| O=C(CN1CCCCC1)Nc1ccccc1NC(=O)CN1CCCCC1 | inconclusive: 1.2 nM |
| O=C(CN1C(=O)NC2(CCc3ccccc32)C1=O)c1ccc2c(c1)OCCO2 (configuration not stated) | inactive |

Ordered by length of the SMILES (largest number first): 3 of the compounds above.

| SMILES | max dye-equivalent concentration |
| --- | --- |
| COC(=O)C1=C(C)NC(C)=C(C(=O)OC)C1C(=O)OCCN1C(=O)c2ccccc2C1=O | inconclusive: 3.9 nM |
| CCN(C(=O)CSc1nnnn1-c1cc(C)ccc1OC)C1CCS(=O)(=O)C1 (configuration not stated) | inactive |
| O=C1NCCN1C(=O)c1ccccc1F | inactive |

Carrying on.

| SMILES | max dye-equivalent concentration |
| --- | --- |
| Cc1noc(C)c1C(=O)NCc1ccco1 | active: 24 nM |
| CN(Cc1ccco1)c1ncnc2ccc(-c3ccoc3)cc12 | inconclusive: 6.8 nM |
| CC(NC(=O)Nc1nnc(C(F)(F)F)s1)(C(F)(F)F)C(F)(F)F | inactive |
| COc1ccc2[nH]c(=O)c(CN(CCN3CCCC3)C(=O)Nc3ccccc3Cl)cc2c1 | active: 250 nM |
| COC(=O)C1=C(C)NC(=O)C1(Nc1nccs1)C(F)(F)F (configuration not stated) | inconclusive: 2.9 nM |
| CN(C)c1ccc(C2=NOC(CN3C(=O)c4ccccc4S3(=O)=O)C2)cc1 (configuration not stated) | inconclusive: 1.2 nM |
| CSc1nc(NC(C)(C)C)nc(Oc2ccc(=O)[nH]n2)n1 | inactive |
| Cc1ccc(C(=O)C2=C(O)C(=O)N(CCCN(C)C)C23C(=O)N(C)c2ccccc23)o1 (configuration not stated) | inconclusive: 3.1 nM |
| COc1ccc(Cl)cc1S(=O)(=O)Nc1cccc(C(=O)O)c1 | inactive |
| COCCNC(=O)c1ccccc1NC(=O)C1COc2ccccc2O1 (configuration not stated) | active: 20 nM |
| Cn1c2c(c(=O)n(C)c1=O)CN(CC1CCCO1)CN2 (configuration not stated) | inconclusive: 8.5 nM |
| CCCc1cc(=O)n2[nH]c(Cc3ccccc3)nc2n1 | inconclusive: 1.1 nM |
| NCC(=O)[C@@H](O)[C@H](O)[C@H](O)CO | inactive |
| Cc1ccc(NC(=O)COc2ccc(/C(N)=N/O)cc2)cc1C | inactive |
| CN(C)c1ccc(C=NCCC2(O)CCOC(C)(C)C2)cc1 (configuration not stated) | inconclusive: 2.4 nM |
| CCC1(C)Cc2c(sc3nc4n(c(=O)c23)CCS4)CO1 (configuration not stated) | inconclusive: 1.3 nM |
| COCCOC(=O)C1=C(C)Nc2nc(C)nn2C1c1ccc(F)cc1 (configuration not stated) | inconclusive: 3.1 nM |
| CCOc1cccc(NC(=O)C2CC(=O)N(C)C(=Nc3cccc(F)c3)S2)c1 (configuration not stated) | inactive |
| COc1ccc(CCNc2oc(COc3ccc(F)cc3)nc2C#N)cc1 | inconclusive: 1.2 nM |
| Cc1nc(N)nc(C)c1Cc1ccccc1 | inconclusive: 2.2 nM |
| COCc1nc2ccccc2n1CCOc1ccccc1OC | inactive |
| CCCc1cc2c(c(NC(C)=O)n1)c(=O)oc1ccccc12 | active: 21 nM |
| C=C(C)Cn1c(Sc2nnc(C)s2)nc2c1c(=O)[nH]c(=O)n2C | inconclusive: 1.9 nM |

Molecules shown so far with a Cl atom, in the order listed:

| SMILES | max dye-equivalent concentration |
| --- | --- |
| COc1cc(NC(=O)c2cc3nc(C)cc(C)n3n2)c(OC)cc1Cl | inconclusive: 7.5 nM |
| Clc1ccc(OCCCn2cncn2)cc1Cl | active: 1400 nM |
| COc1ccc2[nH]c(=O)c(CN(CCN3CCCC3)C(=O)Nc3ccccc3Cl)cc2c1 | active: 250 nM |
| COc1ccc(Cl)cc1S(=O)(=O)Nc1cccc(C(=O)O)c1 | inactive |

The results go on:

| SMILES | max dye-equivalent concentration |
| --- | --- |
| CCc1nc(N2CCN(c3nc(C)cc(C)n3)CC2)c2oc3ccccc3c2n1 | inconclusive: 1.5 nM |
| Cc1ccc2[nH]c(=O)c(CN(CCCN3CCOCC3)Cc3nnnn3C3CCCC3)cc2c1 | active: 41 nM |
| Cc1ccc2cc(C(c3nnnn3C3CCCC3)N(Cc3ccccc3)Cc3ccco3)c(=O)[nH]c2c1 (configuration not stated) | inconclusive: 3.5 nM |
| CC1(c2ccccc2)CC(c2ccccc2)=Nc2nonc2N1 (configuration not stated) | inconclusive: 1.6 nM |
| CC(=O)c1cccc(NC(=O)c2cc3nc(C)cc(C)n3n2)c1 | inconclusive: 1.5 nM |
| CCOC(=O)c1[nH]c(CSc2nnnn2-c2ccccc2C)c(C(=O)OCC)c1C | inconclusive: 1.3 nM |
| Cc1ccc(NC(=O)c2nc[nH]c2C(=O)N2CCCCC2)c(C(=O)c2ccccc2)c1 | inactive |
| N#CC1=C(O)CCCn2c1nc1ccccc1c2=O | inconclusive: 2.1 nM |
| CN1CCN(Cc2c(O)ccc3c(-c4ccccc4)cc(=O)oc23)CC1 | active: 32 nM |
| CCOC(=O)N1CCN(C(=O)c2ccc(C)c(S(=O)(=O)Nc3ccccc3)c2)CC1 | active: 250 nM |
| COc1ccc(CCN2C(=O)c3[nH]nc(-c4ccccc4O)c3C2c2ccc(C)cc2)cc1OC (configuration not stated) | active: 140 nM |
| CN1CCN(C(=O)c2ccccc2-c2ccccc2C(=O)O)CC1 | inactive |
| N#Cc1c2c(c(-c3ccco3)[nH]c1=O)CCCC2 | active: 25 nM |
| COCCNc1oc(-c2ccc(Cl)cc2)nc1C#N | active: 95 nM |
| COc1ccc(C2C3=C(OC(C)=O)c4ccccc4C3=Nc3c2c(=O)n(C)c(=O)n3C)cc1 (configuration not stated) | inconclusive: 2.1 nM |
| CCOc1cc2[nH]c(=O)n(CCC(=O)N3CCN(c4ccccc4OC)CC3)c(=O)c2cc1OCC | inconclusive: 1.3 nM |
| COC(=O)c1ccc(NC(=O)N2CCOCC2)cc1 | inactive |
| Cn1c(SCC(=O)N2CCOCC2)nc2sc3c(c2c1=O)CCCC3 | inactive |
| O=C(COC(=O)C12CC3CC(CC(C3)C1)C2)N1CCN(S(=O)(=O)c2ccccc2)CC1 | inconclusive: 1.4 nM |
| CSc1ccc2c(c1)[C@H](N1CCN(C)CC1)Cc1ccccc1S2 | active: 140 nM |
| COc1ccc(OC)c(NC(=O)CCN2CCC(C)CC2)c1 | inactive |
| O=C(COc1ncnc2ccccc12)N1CCN(S(=O)(=O)c2ccccc2)CC1 | inconclusive: 1.1 nM |
| CCCOc1ccc2c3c(c(=O)oc2c1)CCCC3 | inconclusive: 6 nM |
